Source: PubChem BioAssay AID1347088 (National Center for Advancing Translational Sciences (NCATS), 2019)
Inconclusive results, whose numbers are uncertain, are shown with a selection of clear calls. A potency beside an inconclusive call is a rough fit, not a confirmed value. The source made the active and inactive calls. The call rests on the fitted dose curve.

Test: qHTS for Inhibitors of the Functional Ribonucleoprotein Complex (vRNP) of Lymphocytic Choriomeningitis Arenaviruses (LCMV): Viability assay - Alamar blue signal for LCMV Confirmatory Screen
Settings: LCMV vRNP confirmatory screen cells; viability change, negative = toxic: at 53.9 µM (top of the series)

SMILES | Potency | viability change, negative = toxic
CN1C(C(=O)Nc2ccccn2)=C(O)c2ccccc2S1(=O)=O | inactive | –
C=C(C)C1Cc2c(ccc3c2OC2COc4cc(OC)c(OC)cc4C2C3=O)O1 (stereo not drawn) | inconclusive: 4.32 µM [inhibitor, partial curve] | –
COc1cccc(-c2ccc(NC(=O)C3=C(C(=O)O)CCC3)c(F)c2)c1 | inconclusive: 4.85 µM [inhibitor, full curve] | –
CC12C(=O)OC(=O)C1(C)C1CCC2O1 (stereo not drawn) | active: 8.63 µM | –
Cn1cc(-c2ccncc2)c(-c2ccc(OCc3ccc4ccccc4n3)cc2)n1 | active: 38.5 µM | –
Cc1ccccc1-n1c(Cn2nc(-c3cccc(O)c3)c3c(N)ncnc32)nc2cccc(C)c2c1=O | inactive | –
CNCCCC1c2ccccc2C=Cc2ccccc21 | active: 27.3 µM | –
CC1=C(C)C(=O)C(CCCCC#CCCCC#CCO)=C(C)C1=O | inconclusive: 12.2 µM [inhibitor, partial curve, poor fit] | –
O=c1[nH]c2ccccc2n1C1CCN(CCCC(c2ccc(F)cc2)c2ccc(F)cc2)CC1 | inactive | –
CCOC(=O)OCC/C(SC(=O)OCC)=C(\C)N(C=O)Cc1cnc(C)nc1N | inactive | –
O=C(Nc1ccc(Cl)c(Cl)c1)C1CC1 | inactive | –
Cc1cccc(-c2[nH]c(C(C)(C)C)nc2-c2ccc3c(c2)OCO3)n1 | active: 4.32 µM | –
COC1=CC(=O)C[C@@H](C)[C@]12Oc1c(Cl)c(OC)cc(OC)c1C2=O | inconclusive: 30.6 µM [inhibitor, partial curve, poor fit] | –
COCCOC(=O)C1=C(C)NC(C)=C(C(=O)OC/C=C/c2ccccc2)C1c1cccc([N+](=O)[O-])c1 (stereo not drawn) | inconclusive: 43.2 µM [inhibitor, single point] | –
C=C(C)[C@H]1Cc2c(ccc3c2O[C@@H]2COc4cc(OC)c(OC)cc4[C@@H]2C3=O)O1 | inconclusive: 3.43 µM [inhibitor, full curve, poor fit] | –
CCCCCC[C@H]1C(=O)O[C@H](C)[C@H](NC(=O)c2cccc(NC=O)c2O)C(=O)O[C@@H](C)[C@@H]1OC(=O)CC(C)C | inactive | –
N#CC(=C(\N)Sc1ccccc1N)/C(C#N)=C(/N)Sc1ccccc1N | inactive | –

Ten structures already listed, sorted by molar mass, smallest number first.
SMILES | Potency | viability change, negative = toxic
O=C(Nc1ccc(Cl)c(Cl)c1)C1CC1 | inactive | –
CC1=C(C)C(=O)C(CCCCC#CCCCC#CCO)=C(C)C1=O | inconclusive: 12.2 µM [inhibitor, partial curve, poor fit] | –
CN1C(C(=O)Nc2ccccn2)=C(O)c2ccccc2S1(=O)=O | inactive | –
Cc1cccc(-c2[nH]c(C(C)(C)C)nc2-c2ccc3c(c2)OCO3)n1 | active: 4.32 µM | –
COC1=CC(=O)C[C@@H](C)[C@]12Oc1c(Cl)c(OC)cc(OC)c1C2=O | inconclusive: 30.6 µM [inhibitor, partial curve, poor fit] | –
COc1cccc(-c2ccc(NC(=O)C3=C(C(=O)O)CCC3)c(F)c2)c1 | inconclusive: 4.85 µM [inhibitor, full curve] | –
N#CC(=C(\N)Sc1ccccc1N)/C(C#N)=C(/N)Sc1ccccc1N | inactive | –
C=C(C)[C@H]1Cc2c(ccc3c2O[C@@H]2COc4cc(OC)c(OC)cc4[C@@H]2C3=O)O1 | inconclusive: 3.43 µM [inhibitor, full curve, poor fit] | –
CCOC(=O)OCC/C(SC(=O)OCC)=C(\C)N(C=O)Cc1cnc(C)nc1N | inactive | –
O=c1[nH]c2ccccc2n1C1CCN(CCCC(c2ccc(F)cc2)c2ccc(F)cc2)CC1 | inactive | –

Continued:

SMILES | Potency | viability change, negative = toxic
CN1CCN(C2=Nc3cc(Cl)ccc3Nc3ccccc32)CC1 | inconclusive: 17.2 µM [inhibitor, partial curve] | –
Cc1ncc([N+](=O)[O-])n1CC(C)O (stereo not drawn) | inactive | –
CC(=O)OCC(=O)[C@@]12N=C(C)O[C@H]1C[C@H]1[C@@H]3CCC4=CC(=O)C=C[C@]4(C)[C@@H]3[C@@H](O)C[C@@]12C | inconclusive: 1.72 µM [inhibitor, full curve, poor fit] | –
C=C1CC[C@@H]2[C@](C)(CO)[C@H](O)CC[C@@]2(C)[C@@H]1/C=C/C1=CCOC1=O | inactive | –
S=C(NCc1ccc2c(c1)OCO2)N1CCN(c2ncnc3c2oc2ccccc23)CC1 | inconclusive: 25 µM [inhibitor, full curve] | –
O=C1c2ccccc2-n2c1nc1ccccc1c2=O | inconclusive: 12.2 µM [inhibitor, partial curve] | –
Nc1ccc([N+](=O)[O-])cc1O | inconclusive: 88.5 µM [inhibitor, single point] | –
Cc1cc(N)c2ccccc2[n+]1CCCCCCCCCC[n+]1c(C)cc(N)c2ccccc21 | inconclusive: 43.2 µM [inhibitor, single point] | –
FC(F)(F)c1ccc(C=Cc2nc(COc3ccc(CCCCn4ccnn4)cc3)co2)cc1 | inactive | –
Nc1nc2ccc(OC(F)(F)F)cc2s1 | inconclusive: 38.5 µM [inhibitor, single point] | –
O=C1NC(=O)/C(=C/c2ccc3nccnc3c2)S1 | inconclusive: 43.2 µM [inhibitor, single point] | –
CC(C)(C)C1CCC(CC2=C(O)c3ccccc3C(=O)C2=O)CC1 (stereo not drawn) | – | inconclusive: -42.5% [inhibitor]
CCC1OC2(C)C(O)C(/C=C/C=C/C=C/c3oc(=O)cc(OC)c3C)OC1(C)C2OC(C)=O (stereo not drawn) | inconclusive: 0.122 µM [inhibitor, full curve] | –
CCc1cncnc1N1CCN(Cc2nc3ccc(C(F)(F)F)cc3[nH]2)CC1 | active: 35.2 µM | –
O=C(Nc1ccccc1)c1cc([N+](=O)[O-])ccc1Cl | inconclusive: 30.6 µM [inhibitor, single point] | –
CC[C@@H](C(=O)O)[C@@H]1O[C@@H]([C@@H](C)[C@H](O)[C@H](C)C(=O)[C@H](CC)[C@H]2O[C@]3(C=C[C@@H](O)[C@]4(CC[C@@](C)([C@H]5CC[C@](O)(CC)[C@H](C)O5)O4)O3)[C@H](C)C[C@@H]2C)[C@@H](C)C[C@@H]1C | active: 4.44 µM | –
